# Data published in the supplement of paper PMC12889115.
# Some of the results follow. These are raw signals, not scaled to a control.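 First-pass screen: polymyxin B was added at a level that permeabilizes the Salmonella outer membrane while sparing the inner membrane. DMSO wells, with and without polymyxin B, defined maximum growth. Because plates differed from one another, each plate's data were ranked separately and the compounds with the lowest OD600 were carried forward as hits.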
# Tested on: Salmonella enterica serovar Typhimurium SL1344
# Assay: bacterial growth OD600 after 18 h with compound and polymyxin B; higher = more bacterial growth (less inhibition)
# Conditions: 50 µM, Mueller-Hinton broth
SMILES,bacterial growth OD600 (polymyxin B 1 µg/mL),bacterial growth OD600 (polymyxin B 0.75 µg/mL)
CCN(CC1CCCO1)C(=O)c1csc2nc(-c3ccccc3)cn12 (stereo unspecified),0.852,–
Cc1cc2nc(N3CCC(C(=O)NCC(C)c4ccccc4)CC3)nc(C)c2cc1C (stereo unspecified),–,0.598
CCOC(=O)CN(C)C(=O)c1cccc(OC2CCN(C(=O)C3CC3)CC2)c1,1.06,–
C=C(C)CN(CC)C(=O)CCc1nnc(-c2ccc3c(c2)OCO3)o1,0.933,–
CC(c1ccccc1)c1cc(C(=O)NCc2cnc3ccccn23)on1 (stereo unspecified),–,0.812
c1ccc(Oc2ncccc2CNCc2cccn2-c2cccnc2)cc1,–,0.845
CCO[C@H]1[C@H](NC(=O)c2ccco2)c2ccccc2C12CCN(C(=O)c1cc3ncccn3n1)CC2,–,0.847
CC(NC(=O)c1coc(CN2CCN(c3ccccc3F)CC2)n1)c1cnn(C)c1 (stereo unspecified),0.934,–
COCC(=O)Nc1cc(C(=O)N(C)CCc2cnn(C)c2)cc2ncn(CCc3ccccc3)c12,–,0.785
COCCN(C)C(=O)c1cc(NC(=O)c2ccccc2)cc2ncn(C3CCCC3)c12,–,0.826
CCOC(=O)C1(CCCc2ccccc2)CCCN(C(=O)COC)C1 (stereo unspecified),0.911,–
O=C(NC1CC(=O)N(Cc2cccc3ccccc23)C1)C1CCCC1 (stereo unspecified),0.91,–
CN(Cc1ccccn1)C(=O)c1cc(COc2cccc(C(F)(F)F)c2)[nH]n1,1.14,–
Clc1ccccc1CC1CN(c2cnccn2)CCO1 (stereo unspecified),–,0.744
O=C(C1CC=CCC1)N1CCc2[nH]nc(-c3ccc(C(F)(F)F)cc3)c2C1 (stereo unspecified),–,0.695
c1cncc(CN(CCN2CCCCC2)CC2CCCN(C3CCCC3)C2)c1 (stereo unspecified),0.895,–
Cc1cc(CN(C)c2ccc(C(=O)NCCC3CCCCN3C)cn2)on1 (stereo unspecified),0.994,–
CC(C)c1ccc(NC2CCCN(C(=O)c3ccc(Cn4cnnn4)cc3)C2)cc1 (stereo unspecified),0.918,–
COc1ccc(C(CC(=O)N(C)Cc2nc(C)cs2)c2ccccc2)cc1 (stereo unspecified),0.688,–
COc1ccc(OC2CCN(C(C)=O)CC2)c(C(=O)NCc2cc3ccccc3[nH]2)c1,1.08,–
CCOc1cc(CN2Cc3cc(Cl)ccc3OC(C)C2)ccc1O (stereo unspecified),–,0.674

# Full records, looked up by structure. Order of values: bacterial growth OD600 (polymyxin B 1 µg/mL) | bacterial growth OD600 (polymyxin B 0.75 µg/mL)
# `Cc1cc2nc(N3CCC(C(=O)NCC(C)c4ccccc4)CC3)nc(C)c2cc1C` (stereo unspecified) is listed with – | 0.598
# `COCCN(C)C(=O)c1cc(NC(=O)c2ccccc2)cc2ncn(C3CCCC3)c12` is listed with – | 0.826
